For at least one compound, name, drawing or mass did not settle the structure.
How the values were obtained:
[1] = test system: synuclein phosphorylation (serine-129); assay: inhibition of synuclein phosphorylation across the cellular paradigms (primary neuronal cultures and 293 cells); format: cell-based, mouse, rat and human; details: cell types tested
PLK2 = PLK2 (Homo sapiens, UniProt Q9NYY3); assay: in vitro biochemical assay of PLK2-driven synuclein phosphorylation
Description: The reaction was incubated at 37° C. The activity was analyzed by autoradiography.
In vitro biochemical assays using each of the four PLK family members as the kinase to phosphorylate synuclein were conducted.

Amino acid sequences for entries named in this document (tags omitted). A change or cut given only in a name is not applied to a line headed by its entry.
UniProt Q9NYY3: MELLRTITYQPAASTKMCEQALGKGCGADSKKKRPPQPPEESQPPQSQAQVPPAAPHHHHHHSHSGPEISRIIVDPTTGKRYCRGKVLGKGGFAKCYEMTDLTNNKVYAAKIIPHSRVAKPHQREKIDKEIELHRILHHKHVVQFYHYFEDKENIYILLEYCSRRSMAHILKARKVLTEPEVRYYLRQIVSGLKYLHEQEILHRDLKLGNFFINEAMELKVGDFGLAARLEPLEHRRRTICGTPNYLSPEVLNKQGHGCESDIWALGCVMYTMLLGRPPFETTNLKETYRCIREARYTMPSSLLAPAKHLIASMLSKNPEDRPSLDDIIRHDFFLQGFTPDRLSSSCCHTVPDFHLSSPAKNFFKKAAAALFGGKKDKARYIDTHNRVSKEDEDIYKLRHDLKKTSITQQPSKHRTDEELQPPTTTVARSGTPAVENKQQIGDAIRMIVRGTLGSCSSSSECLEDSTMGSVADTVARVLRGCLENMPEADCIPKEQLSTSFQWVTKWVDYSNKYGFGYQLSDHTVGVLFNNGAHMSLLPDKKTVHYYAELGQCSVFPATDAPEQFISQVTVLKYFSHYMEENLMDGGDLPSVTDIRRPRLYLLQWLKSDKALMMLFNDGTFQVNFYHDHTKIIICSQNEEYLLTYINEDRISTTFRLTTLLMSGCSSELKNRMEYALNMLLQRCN

SMILES: COC[C@H]1OC(=O)c2coc3c2[C@@]1(C)C1=C(C3=O)[C@@H]2CCC(=O)[C@@]2(C)C[C@H]1OC(C)=O [Wortmannin]
- inhibition of 50% of synuclein phosphorylation in cells [1]: did not inhibit 50%
- inhibition of 50% of synuclein phosphorylation in the in vitro assay (PLK2): did not inhibit 50%
